Out of some 320,000 compounds screened, about 22,000 (6.9%) were called active. Inconclusive results, whose numbers are uncertain, are shown with a selection of clear calls. Calls come from the whole dose curve; as a rule, active = well fitted inhibition curve with a large enough effect; inconclusive = small, poorly fitted or top-dose-only effect, or another doubt; inactive = no such curve, though single readings can be large or run the other way. Potencies beside an inconclusive call are fits to weak or partial responses and may not hold up.
Experiment: Primary qHTS for delayed death inhibitors of the malarial parasite plastid, 96 hour incubation
Settings: P. falciparum luciferase reporter growth; series mostly up to 28.7 µM; activity change, negative = inhibition: at the top concentration
Summary of the method: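 Compounds incubated with erythrocytes infected by luciferase-expressing P. falciparum (2% hematocrit, 0.05% parasitemia final) for 96 hours, 37 C in 5% CO2. Growth inhibition scored as decreased luciferase luminescence.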
% is set by controls: 0 for no effect and ±100 for the full control effect; potency is the fitted concentration of half-maximal effect.

| Structure (SMILES) | Potency | activity change, negative = inhibition |
| --- | --- | --- |
| COc1ccc(CC(=O)NNC(=O)CCc2ccccc2)cc1OC | active: 13.1 µM |  |
| O=C(O)CCC(=O)N1N=C(c2c(-c3ccccc3)c3cc(Cl)ccc3[nH]c2=O)CC1c1cccs1 (configuration not stated) | inconclusive: 4.15 µM [inhibitor, single point] |  |
| CCc1ccc(C(C(=O)NCc2ccc(OC)cc2)N(CCOC)C(=O)Cc2cccs2)cc1 (configuration not stated) | active: 1.47 µM |  |
| CN1CCN(C(=O)C2=C[C@@H](C3CCCCC3)C[C@@H](OCc3ccc(CO)cc3)O2)CC1 | inconclusive: 13.1 µM [inhibitor, single point] |  |
| Cc1noc(NS(=O)(=O)c2ccc(NC(=O)c3cc(=O)c4ccccc4o3)cc2)c1C | inconclusive: 6.57 µM [inhibitor, partial curve] |  |
| CCOc1ccc(NC(=O)CSc2nccn(-c3ccc4c(c3)OCCO4)c2=O)cc1 | inconclusive: 18.5 µM [inhibitor, single point] |  |
| O=C(Oc1ccc(N(C(=O)c2ccncc2)S(=O)(=O)c2cccs2)cc1)c1ccncc1 |  | inactive: 42.6% |
| CCc1ccc(OC)c(S(=O)(=O)NCc2cccs2)c1 |  | inactive: -26.6% |
| CC1CCN(C(=O)COC(=O)C2CCN(S(=O)(=O)c3c(Cl)cccc3Cl)CC2)CC1 |  | inactive: 0.172% |
| CC(C)CCn1nc(C(=O)Nc2nc3c(s2)CCCC3)c2ccccc2c1=O | inconclusive: 4.65 µM [inhibitor, partial curve, poor fit] |  |
| O=C(c1c[nH]c(C(=O)C(Cl)(Cl)Cl)c1)c1ccccc1F |  | inactive: -6.94% |
| CCC(C)(C)NC(=O)C(c1ccncc1)N(C(=O)Cn1nnc2ccccc21)c1cc2c(cc1C(C)=O)OCO2 (configuration not stated) |  | inactive: 13.1% |
| Cc1ccc(C2=[N+]([O-])C3(CCCCC/C3=N\NC(N)=S)N(O)C2(C)C)o1 (configuration not stated) |  | inactive: -21.7% |
| CC1CCCCN1CCNC(=O)c1cnn2ccccc12 (configuration not stated) | inconclusive: 11.7 µM [inhibitor, single point] |  |
| CC(C)c1ccc(NC(=O)CNC(=O)Cn2cnc3ccccc3c2=O)cc1 | inconclusive: 11.7 µM [inhibitor, partial curve, poor fit] |  |
| CCn1c(CCC(=O)Nc2ccccc2F)nnc1SCC(=O)Nc1ccc(OC)cc1 | inconclusive: 13.1 µM [inhibitor, single point] |  |
| Cc1ccc(S(=O)(=O)N2CCC(=O)N(C(COCc3ccc(C(F)(F)F)cc3)C(C)C)CC2)cc1 (configuration not stated) | active: 10.4 µM |  |
| Cc1ccc(C)c(Cn2c(=O)n(CCCC(=O)NCc3ccco3)c(=O)c3sccc32)c1 | inconclusive: 10.4 µM [inhibitor, single point] |  |
| COc1ccc(C2(c3ccc(OC)cc3)NC(=O)N(CC(=O)N3CCOCC3)C2=O)cc1 |  | inactive: 4.5% |
| Nc1nc(Nc2cccc(Cl)c2)nc(NCCO)c1[N+](=O)[O-] | inconclusive: 9.28 µM [inhibitor, partial curve] |  |
| O=S(=O)(c1cccs1)N1CN(Cc2ccco2)c2nc3ccccc3nc21 | inconclusive: 10.4 µM [inhibitor, partial curve] |  |
| Cc1ccc(Nc2ncnc3sc(C)c(C)c23)cc1 | active: 9.28 µM |  |
| CC1CCCC(NS(=O)(=O)c2ccc3c(c2)OCCO3)C1C (configuration not stated) | inconclusive: 0.415 µM [inhibitor, full curve, poor fit] |  |

| Structure (SMILES) | Potency | activity change, negative = inhibition |
| --- | --- | --- |
| CCn1c(=O)n(CC)c2cc(N3CCCC3)c(NC(=O)c3c(F)cccc3F)cc21 | inconclusive: 10.4 µM [inhibitor, partial curve, poor fit] |  |
| CCOc1ccccc1C1C(C(=O)Nc2ccc(OC)cc2)=C(C)Nc2nc(CCCO)nn21 (configuration not stated) | inconclusive: 18.5 µM [inhibitor, single point] |  |
| c1ccc(-c2cc(-c3nc(-c4cccnc4)no3)c3ccccc3n2)cc1 | inconclusive: 18.5 µM [inhibitor, single point] |  |
| O=C(CSc1n[nH]c(-c2ccccc2)n1)c1ccc(O)c(O)c1 | inconclusive: 1.85 µM [inhibitor, partial curve, poor fit] |  |
| COc1cccc(C2CC(=O)Nc3cc4c(cc32)CCC4)c1 (configuration not stated) | inconclusive: 11.7 µM [inhibitor, single point] |  |
| Cc1cc(Cl)ccc1C(=O)C1CCCN(C2CCSCC2)C1 (configuration not stated) | inconclusive: 18.5 µM [inhibitor, single point] |  |
| COc1cccc(CN2CCN(CCCc3ccccc3)C(CCO)C2)c1O (configuration not stated) | active: 7.38 µM |  |
| COc1ccc(C2=NN(C(=O)CSc3nnc(-c4ccccc4F)o3)C(c3ccco3)C2)cc1 (configuration not stated) | inconclusive: 0.465 µM [inhibitor, full curve, poor fit] |  |
| CC1CN(c2ncnc3c2c(-c2ccccc2)cn3-c2ccc(F)cc2)CC(C)O1 (configuration not stated) | inconclusive: 18.5 µM [inhibitor, single point] |  |
| CN1CCC=C(C(=O)N2c3ccccc3Sc3ccc(Cl)cc32)C1 | inconclusive: 13.1 µM [inhibitor, partial curve, poor fit] |  |
| Cc1cccc(-n2c(SCC(=O)N(C)C3CCS(=O)(=O)C3)nc3ccccc3c2=O)c1C (configuration not stated) | inconclusive: 4.15 µM [inhibitor, full curve] |  |
| CC(C)c1ccc(C2(O)C(=O)Nc3cc(Br)ccc32)c(O)c1 (configuration not stated) | active: 13.1 µM |  |
| CN(C)S(=O)(=O)N1CCCC(C(=O)c2ccc(-c3ccccc3)cc2)C1 (configuration not stated) | inconclusive: 13.1 µM [inhibitor, single point] |  |
| CCOc1ccc(NS(=O)(=O)c2ccc(C(=O)N3CCN(C(C)=O)CC3)cc2)cc1 | inconclusive: 3.7 µM [inhibitor, partial curve, poor fit] |  |
| CCOC(=O)C(CC)(CCC(=O)OC)c1csc(Nc2ccccc2O)n1 (configuration not stated) | inconclusive: 13.1 µM [inhibitor, single point] |  |
| O=C(NCC(=O)N(c1cccnc1)C(C(=O)NC1CCCC1)c1cccs1)c1ccco1 (configuration not stated) | inconclusive: 10.4 µM [inhibitor, partial curve, poor fit] |  |
| O=C(COC(=O)CNC(=O)c1cccs1)Nc1ccccc1C(F)(F)F |  | inactive: 6.17% |
| CCCn1c(SCC(=O)N2CCCCC2)nnc1-c1ccco1 | inconclusive: 0.828 µM [inhibitor, partial curve, poor fit] |  |
| C[C@H]1CCC(=O)N([C@H](CSc2ccccc2)Cc2ccccc2)CC1 | active: 11.7 µM |  |
| CCOC(=O)/C(C#N)=C/c1ccc(OCC(=O)Nc2ccc(OC)cc2)c(OC)c1 | inconclusive: 0.185 µM [inhibitor, partial curve, poor fit] |  |
| COc1cccc(OCc2cc(C(=O)NC(C)c3cnn(C)c3C)no2)c1 (configuration not stated) | inconclusive: 0.828 µM [inhibitor, full curve, poor fit] |  |
| Cc1oc(C(=O)O)cc1COc1cccc2ccccc12 | active: 2.33 µM |  |
| COc1ccc(OCc2nnc(SCC(=O)O)n2N)cc1 | inconclusive: 6.57 µM [inhibitor, partial curve] |  |

| Structure (SMILES) | Potency | activity change, negative = inhibition |
| --- | --- | --- |
| CC(C)Sc1nc2ccc(N3C(=O)C4CCCCC4C3=O)cc2s1 (configuration not stated) |  | inactive: 16.7% |
| COc1ccc(/C=N/NC(=O)c2ccc(=O)n(C)c2)cc1OC | inconclusive: 10.4 µM [inhibitor, single point] |  |
| CC(C)(C#CCN1CCCC1)OCCC#N | inconclusive: 18.5 µM [inhibitor, single point] |  |
| Cc1ccc(-c2nc3c(c(=O)c4ccccc4n3C)c(=O)n2-c2ccc(F)cc2)cc1 |  | inactive: -25% |
| C=CCN=C1SCC(=O)N1S(=O)(=O)c1ccccc1 | inconclusive: 11.7 µM [inhibitor, single point] |  |
| CC(C)(C)NC(=O)CN(C(=O)CCC(=O)Nc1nccs1)c1cccc(C(F)(F)F)c1 | inconclusive: 10.4 µM [inhibitor, partial curve, poor fit] |  |
| CCOC(=O)c1sc2c(c1C)c(=O)c(C(=O)OCC)cn2CC |  | inactive: 8.06% |
| CCCCOc1ccc(C(=O)Nc2ccc(OCC(=O)N3CCOCC3)cc2)cc1 | inconclusive: 18.5 µM [inhibitor, single point] |  |
| Cc1ccc(S(=O)(=O)N(c2cccc(C(F)(F)F)c2)C2C=CS(=O)(=O)C2)cc1 (configuration not stated) | active: 16.5 µM |  |
| COC(=O)Sc1nc(N2CCOCC2)c2c(c1C#N)CC(C)(C)OC2 | inconclusive: 16.5 µM [inhibitor, single point] |  |
| C[C@H]1C(=O)N(C)CCN1C(=O)c1cccc(OC2CCN(CC(C)(C)C)CC2)c1 |  | inactive: 20.4% |
| Cc1ccc(NC(=O)Cn2cccc2)cc1Cl | inconclusive: 18.5 µM [inhibitor, single point] |  |
| O=C(Nc1ccc(Cl)cc1)OCc1cn(-c2ccc(Cl)cc2)nn1 |  | inactive: 86.9% |
| O=S(=O)(c1ccc(Cl)cc1)N1CCC2(CC1)OCCN2S(=O)(=O)c1cccs1 | inconclusive: 11.7 µM [inhibitor, single point] |  |
| COc1ccc(O)c(CN2CCN(C/C=C/c3ccccc3)CC2)c1 | inconclusive: 13.1 µM [inhibitor, partial curve] |  |
| N#Cc1nc(COc2ccccc2F)oc1NCCCn1ccnc1 |  | inactive: 11.8% |
| COCCN1C(=O)N(c2ccccc2)C(=O)C1CC(=O)Nc1cc(OC)cc(OC)c1 (configuration not stated) | inconclusive: 18.5 µM [inhibitor, single point] |  |
| O=S(=O)(NCC1COc2ccccc2O1)c1ccc2ccccc2c1 (configuration not stated) |  | inactive: 12% |
| COc1cc(OC)c2c(c1C(CCN1CCOCC1)c1ccc(N(C)C)cc1)OC(=O)CC2c1ccc(N(C)C)cc1 (configuration not stated) | inconclusive: 10.4 µM [inhibitor, partial curve] |  |
| CCOc1ccc(S(=O)(=O)c2c(C(=O)c3ccccc3)cnc3cc4c(cc23)OCCO4)cc1 | inconclusive: 18.5 µM [inhibitor, single point] |  |
| CC(C)Sc1nc2sccc2c(=O)n1-c1ccccc1 | inconclusive: 0.415 µM [inhibitor, full curve, poor fit] |  |

Six structures out of the list, ordered by molecular weight, rising:

| Structure (SMILES) | Potency | activity change, negative = inhibition |
| --- | --- | --- |
| COc1ccc(/C=N/NC(=O)c2ccc(=O)n(C)c2)cc1OC | inconclusive: 10.4 µM [inhibitor, single point] |  |
| O=S(=O)(NCC1COc2ccccc2O1)c1ccc2ccccc2c1 (configuration not stated) |  | inactive: 12% |
| CC(C)Sc1nc2ccc(N3C(=O)C4CCCCC4C3=O)cc2s1 (configuration not stated) |  | inactive: 16.7% |
| COC(=O)Sc1nc(N2CCOCC2)c2c(c1C#N)CC(C)(C)OC2 | inconclusive: 16.5 µM [inhibitor, single point] |  |
| COCCN1C(=O)N(c2ccccc2)C(=O)C1CC(=O)Nc1cc(OC)cc(OC)c1 (configuration not stated) | inconclusive: 18.5 µM [inhibitor, single point] |  |
| Cc1ccc(S(=O)(=O)N(c2cccc(C(F)(F)F)c2)C2C=CS(=O)(=O)C2)cc1 (configuration not stated) | active: 16.5 µM |  |
